{"source": "the supplement of paper PMC4604168 (melanoma cell lines)", "note": "The other results are listed elsewhere or left out. Repeats are few or missing, and single values can be far off.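 Imaging used 1,536-well plates; nuclei positive for cleaved PARP by antibody were divided by total DNA-stained nuclei to yield the apoptosis fraction. Doses for screening kept most cells viable, and cell lines differ markedly in resting and induced cleaved-PARP levels.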"}
{"system": "IPC-298", "assay": "cleaved PARP positive nuclei fraction relative to DMSO control; higher = more apoptosis", "conditions": "library dose: low library concentration; 72 h", "units": {"cleaved PARP positive nuclei fraction": "%"}}
{"smiles": "Nc1cccc2c1CN(C1CCC(=O)NC1=O)C2=O", "note": "(stereo not drawn) [lenalidomide] + Cn1cc(/C=C2\\C(=O)Nc3cccnc32)c2ccccc21 [GW441756] (first compound 1 µM, partner dose 0.4 µM)", "cleaved PARP positive nuclei fraction": 157}
{"smiles": "Cc1nc(Nc2ncc(C(=O)Nc3c(C)cccc3Cl)s2)cc(N2CCN(CCO)CC2)n1", "note": "[dasatanib] + c1cc(-c2cnn3cc(-c4ccc(OCCN5CCCCC5)cc4)cnc23)ccn1 [Dorsomorphin] (first compound 0.004 µM, partner dose 0.4 µM)", "cleaved PARP positive nuclei fraction": 182}
{"smiles": "Cn1cncc1[C@@](N)(c1ccc(Cl)cc1)c1ccc2c(c1)c(-c1cccc(Cl)c1)cc(=O)n2C", "note": "[tipifarnib] + O=C(O)C(=O)Nc1sc2c(c1C(=O)O)CCNC2 [TCS401] (first compound 0.01 µM, partner dose 1.66667 µM)", "cleaved PARP positive nuclei fraction": 169}
{"smiles": "Cn1c(Nc2ccc(C(F)(F)F)cc2)nc2cc(Oc3ccnc(-c4ncc(C(F)(F)F)[nH]4)c3)ccc21", "note": "+ O=C(Nc1ccccc1)c1cc([N+](=O)[O-])ccc1Cl [GW9662] (first compound 0.08 µM, partner dose 2 µM)", "cleaved PARP positive nuclei fraction": 615}
{"smiles": "Cn1cncc1[C@@](N)(c1ccc(Cl)cc1)c1ccc2c(c1)c(-c1cccc(Cl)c1)cc(=O)n2C", "note": "[tipifarnib] + Oc1nc(-c2ccc(C(F)(F)F)cc2)nc2c1CSCC2 [XAV939] (first compound 0.01 µM, partner dose 2 µM)", "cleaved PARP positive nuclei fraction": 43.6}
{"smiles": "Cn1nnc2c(C(N)=O)ncn2c1=O", "note": "[temozolomide] + COc1ccc2c(c1)CCC1C2CCC2(C)C(NCCCCCCN3C(=O)C=CC3=O)CCC12 [U73122] (first compound 2 µM, partner dose 0.4 µM)", "cleaved PARP positive nuclei fraction": 90.2}
{"system": "IST-MEL1", "assay": "cleaved PARP positive nuclei fraction relative to DMSO control; melanoma cells; higher = more apoptosis", "conditions": "library dose: low library concentration; 72 h", "units": {"cleaved PARP positive nuclei fraction": "%"}}
{"smiles": "OCCn1cc(-c2cnc3nnn(Cc4ccc5ncccc5c4)c3n2)cn1", "note": "+ Oc1cc(-c2nc(-c3ccccc3)[nH]c2-c2ccncc2)ccc1Cl [L779450] (first compound 1 µM, partner dose 0.2 µM)", "cleaved PARP positive nuclei fraction": 56.6}
{"smiles": "CO[C@@H]1[C@H](N(C)C(=O)c2ccccc2)C[C@H]2O[C@]1(C)n1c3ccccc3c3c4c(c5c6ccccc6n2c5c31)C(=O)NC4", "note": "[Midostaurin] + O=C(Nc1ccccc1)c1cc([N+](=O)[O-])ccc1Cl [GW9662] (first compound 0.08 µM, partner dose 2 µM)", "cleaved PARP positive nuclei fraction": 83.3}
{"smiles": "CC1(C)NC(=O)N(c2ccc([N+](=O)[O-])c(C(F)(F)F)c2)C1=O", "note": "[nilutamide] + COC(=O)c1sccc1S(=O)(=O)Nc1ccc(Nc2ccccc2)cc1OC [GSK0660] (first compound 1 µM, partner dose 1 µM)", "cleaved PARP positive nuclei fraction": 40.8}
{"smiles": "Cc1nc(Nc2ncc(C(=O)Nc3c(C)cccc3Cl)s2)cc(N2CCN(CCO)CC2)n1", "note": "[dasatanib] + Cc1cc([N+](=O)[O-])ccc1NS(=O)(=O)c1cc(Cl)ccc1Cl [FH535] (first compound 0.004 µM, partner dose 1 µM)", "cleaved PARP positive nuclei fraction": 125}
{"smiles": "C[C@@H]1CCN(C(=O)CC#N)C[C@@H]1N(C)c1ncnc2[nH]ccc12", "note": "+ O=C(Nc1ccccc1)c1cc([N+](=O)[O-])ccc1Cl [GW9662] (first compound 1 µM, partner dose 2 µM)", "cleaved PARP positive nuclei fraction": 57.7}
{"smiles": "C=CCn1c(=O)c2cnc(Nc3ccc(N4CCN(C)CC4)cc3)nc2n1-c1cccc(C(C)(C)O)n1", "note": "+ O=c1cc(-c2cccc3c2Sc2ccccc2S3)oc(N2CCOCC2)c1 [KU55933] (first compound 0.02 µM, partner dose 1 µM)", "cleaved PARP positive nuclei fraction": 51.7}
{"smiles": "Cc1ccc(NC(=O)c2cccc(N(C)C)c2)cc1NC(=O)c1ccc(O)cc1", "note": "+ N#Cc1c(O)c2c(-c3ccc(-c4ccccc4O)cc3)csc2[nH]c1=O [A769662] (first compound 2 µM, partner dose 2 µM)", "cleaved PARP positive nuclei fraction": 141}
{"smiles": "Cc1cc(N2CCOCC2)cc2[nH]c(-c3c(NC[C@@H](O)c4cccc(Cl)c4)cc[nH]c3=O)nc12", "note": "+ O=C(O)C(=O)Nc1sc2c(c1C(=O)O)CCNC2 [TCS401] (first compound 0.2 µM, partner dose 1.66667 µM)", "cleaved PARP positive nuclei fraction": 83.3}
{"smiles": "C=CCn1c(=O)c2cnc(Nc3ccc(N4CCN(C)CC4)cc3)nc2n1-c1cccc(C(C)(C)O)n1", "note": "+ CCN(CC)CCCCNc1ncc2cc(-c3cc(OC)cc(OC)c3)c(NC(=O)NC(C)(C)C)nc2n1 [PD173074] (first compound 0.02 µM, partner dose 0.1 µM)", "cleaved PARP positive nuclei fraction": 86}
{"smiles": "Cc1cc(N2CCOCC2)cc2[nH]c(-c3c(NC[C@@H](O)c4cccc(Cl)c4)cc[nH]c3=O)nc12", "note": "+ O=c1cc(-c2cccc3c2Sc2ccccc2S3)oc(N2CCOCC2)c1 [KU55933] (first compound 0.2 µM, partner dose 1 µM)", "cleaved PARP positive nuclei fraction": 225}
{"smiles": "C#Cc1cccc(Nc2ncnc3cc(OCCOC)c(OCCOC)cc23)c1", "note": "[erlotinib] + O=c1cc(-c2cccc3c2Sc2ccccc2S3)oc(N2CCOCC2)c1 [KU55933] (first compound 0.8 µM, partner dose 1 µM)", "cleaved PARP positive nuclei fraction": 68.6}
{"smiles": "Cn1c(Nc2ccc(C(F)(F)F)cc2)nc2cc(Oc3ccnc(-c4ncc(C(F)(F)F)[nH]4)c3)ccc21", "note": "+ O=C1NC(=O)/C(=C/c2ccc(-c3ccc(F)cc3O)o2)S1 [AS252424] (first compound 0.08 µM, partner dose 1 µM)", "cleaved PARP positive nuclei fraction": 119}
{"smiles": "NC(=O)Nc1cc(-c2cccc(F)c2)sc1C(=O)N[C@H]1CCCNC1", "note": "+ CCCCCCCCCCCC1=C(O)C(=O)C=C(O)C1=O [Embelin] (first compound 0.02 µM, partner dose 1.2 µM)", "cleaved PARP positive nuclei fraction": 221}
{"smiles": "C=CCn1c(=O)c2cnc(Nc3ccc(N4CCN(C)CC4)cc3)nc2n1-c1cccc(C(C)(C)O)n1", "note": "+ COc1cc2ncnc(Nc3ccc(Oc4ccccc4)cc3)c2cc1OC [SrcI1] (first compound 0.02 µM, partner dose 2 µM)", "cleaved PARP positive nuclei fraction": 29.2}
{"smiles": "Cn1c(Nc2ccc(C(F)(F)F)cc2)nc2cc(Oc3ccnc(-c4ncc(C(F)(F)F)[nH]4)c3)ccc21", "note": "+ N#Cc1c(O)c2c(-c3ccc(-c4ccccc4O)cc3)csc2[nH]c1=O [A769662] (first compound 0.08 µM, partner dose 2 µM)", "cleaved PARP positive nuclei fraction": 96.2}
{"smiles": "Cn1nnc2c(C(N)=O)ncn2c1=O", "note": "[temozolomide] + COc1cc(N2CCC(N3CCN(C)CC3)CC2)ccc1Nc1ncc(Cl)c(Nc2ccccc2S(=O)(=O)C(C)C)n1 [NVP-TAE684] (first compound 2 µM, partner dose 0.08 µM)", "cleaved PARP positive nuclei fraction": 200}
{"smiles": "O=C(CCCCCCC(=O)Nc1ccccc1)NO", "note": "[vorinostat] + COc1ccc(COc2ccc(Cc3cnc(N)nc3N)cc2OC)cc1 [GW2580] (first compound 0.08 µM, partner dose 1 µM)", "cleaved PARP positive nuclei fraction": 95.5}
{"smiles": "C#Cc1cccc(Nc2ncnc3cc(OCCOC)c(OCCOC)cc23)c1", "note": "[erlotinib] + Oc1cc(-c2nc(-c3ccccc3)[nH]c2-c2ccncc2)ccc1Cl [L779450] (first compound 0.8 µM, partner dose 0.2 µM)", "cleaved PARP positive nuclei fraction": 120}
{"smiles": "C#Cc1cccc(Nc2ncnc3cc(OCCOC)c(OCCOC)cc23)c1", "note": "[erlotinib] + N#Cc1c(O)c2c(-c3ccc(-c4ccccc4O)cc3)csc2[nH]c1=O [A769662] (first compound 0.8 µM, partner dose 2 µM)", "cleaved PARP positive nuclei fraction": 70.2}
{"smiles": "COCC[n+]1c2c(n(Cc3cnccn3)c1C)C(=O)c1ccccc1C2=O", "note": "+ COc1ccc(-c2ccc3c(N4CCOCC4)nc(N4C[C@@H](C)O[C@@H](C)C4)nc3n2)cc1CO [KU0063794] (first compound 0.0004 µM, partner dose 0.02 µM)", "cleaved PARP positive nuclei fraction": 39}
{"smiles": "COc1cc(Nc2ncc(F)c(Nc3ccc4c(n3)NC(=O)C(C)(C)O4)n2)cc(OC)c1OC", "note": "[Tamatinib] + O=C1NC(=O)/C(=C/c2ccc(-c3ccc(F)cc3O)o2)S1 [AS252424] (first compound 0.4 µM, partner dose 1 µM)", "cleaved PARP positive nuclei fraction": 251}
{"smiles": "OCCn1cc(-c2cnc3nnn(Cc4ccc5ncccc5c4)c3n2)cn1", "note": "+ Cc1cc([N+](=O)[O-])ccc1NS(=O)(=O)c1cc(Cl)ccc1Cl [FH535] (first compound 1 µM, partner dose 1 µM)", "cleaved PARP positive nuclei fraction": 35.1}
{"smiles": "Nc1cccc2c1CN(C1CCC(=O)NC1=O)C2=O", "note": "(stereo not drawn) [lenalidomide] + CCN(CC)CCCCNc1ncc2cc(-c3cc(OC)cc(OC)c3)c(NC(=O)NC(C)(C)C)nc2n1 [PD173074] (first compound 1 µM, partner dose 0.1 µM)", "cleaved PARP positive nuclei fraction": 36.1}
{"smiles": "C[C@@H]1CCN(C(=O)CC#N)C[C@@H]1N(C)c1ncnc2[nH]ccc12", "note": "+ O=C(O)C(=O)Nc1sc2c(c1C(=O)O)CCNC2 [TCS401] (first compound 1 µM, partner dose 1.66667 µM)", "cleaved PARP positive nuclei fraction": 523}
{"smiles": "OCCn1cc(-c2cnc3nnn(Cc4ccc5ncccc5c4)c3n2)cn1", "note": "+ COc1ccc2c(c1)CCC1C2CCC2(C)C(NCCCCCCN3C(=O)C=CC3=O)CCC12 [U73122] (first compound 1 µM, partner dose 0.4 µM)", "cleaved PARP positive nuclei fraction": 133}
{"smiles": "Cc1cc(N2CCOCC2)cc2[nH]c(-c3c(NC[C@@H](O)c4cccc(Cl)c4)cc[nH]c3=O)nc12", "note": "+ O=C(Nc1ccccc1)c1cc([N+](=O)[O-])ccc1Cl [GW9662] (first compound 0.2 µM, partner dose 2 µM)", "cleaved PARP positive nuclei fraction": 31.5}
{"smiles": "Nc1cccc2c1CN(C1CCC(=O)NC1=O)C2=O", "note": "(stereo not drawn) [lenalidomide] + O=C(Nc1ccccc1)c1cc([N+](=O)[O-])ccc1Cl [GW9662] (first compound 1 µM, partner dose 2 µM)", "cleaved PARP positive nuclei fraction": 117}
